Source: article PMC6836825, “K^+ Channel-SEC11 Binding Exchange Regulates SNARE Assembly for Secretory Traffic^1” (Plant Physiology, 2019)
These are yes or no findings as the source states them, for the method shown. Some results given as binding are weak or reduced against the parent protein; the word gives no strength. Tags and fused reporters may be left off the sequences shown.

Amino acid sequences for entries named in this document (tags omitted). A change or cut given only in a name is not applied to a line headed by its entry.
UniProt Q39128: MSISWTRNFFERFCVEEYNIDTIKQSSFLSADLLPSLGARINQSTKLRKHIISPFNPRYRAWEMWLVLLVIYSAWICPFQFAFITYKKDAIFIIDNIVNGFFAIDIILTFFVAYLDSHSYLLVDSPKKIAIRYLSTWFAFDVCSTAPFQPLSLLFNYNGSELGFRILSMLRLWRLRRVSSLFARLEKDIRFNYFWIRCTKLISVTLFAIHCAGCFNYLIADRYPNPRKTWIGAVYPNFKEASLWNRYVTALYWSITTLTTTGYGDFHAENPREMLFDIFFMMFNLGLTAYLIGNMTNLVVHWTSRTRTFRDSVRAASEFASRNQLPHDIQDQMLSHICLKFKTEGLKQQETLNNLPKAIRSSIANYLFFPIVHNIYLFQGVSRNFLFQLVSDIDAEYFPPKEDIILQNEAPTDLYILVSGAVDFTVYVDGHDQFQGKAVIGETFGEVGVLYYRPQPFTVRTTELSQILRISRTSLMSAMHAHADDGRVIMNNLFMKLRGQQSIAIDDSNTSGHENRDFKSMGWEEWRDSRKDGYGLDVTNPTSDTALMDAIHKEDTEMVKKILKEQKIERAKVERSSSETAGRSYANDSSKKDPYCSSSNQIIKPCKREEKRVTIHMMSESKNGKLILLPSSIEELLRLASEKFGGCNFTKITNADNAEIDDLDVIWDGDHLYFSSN
UniProt P92960: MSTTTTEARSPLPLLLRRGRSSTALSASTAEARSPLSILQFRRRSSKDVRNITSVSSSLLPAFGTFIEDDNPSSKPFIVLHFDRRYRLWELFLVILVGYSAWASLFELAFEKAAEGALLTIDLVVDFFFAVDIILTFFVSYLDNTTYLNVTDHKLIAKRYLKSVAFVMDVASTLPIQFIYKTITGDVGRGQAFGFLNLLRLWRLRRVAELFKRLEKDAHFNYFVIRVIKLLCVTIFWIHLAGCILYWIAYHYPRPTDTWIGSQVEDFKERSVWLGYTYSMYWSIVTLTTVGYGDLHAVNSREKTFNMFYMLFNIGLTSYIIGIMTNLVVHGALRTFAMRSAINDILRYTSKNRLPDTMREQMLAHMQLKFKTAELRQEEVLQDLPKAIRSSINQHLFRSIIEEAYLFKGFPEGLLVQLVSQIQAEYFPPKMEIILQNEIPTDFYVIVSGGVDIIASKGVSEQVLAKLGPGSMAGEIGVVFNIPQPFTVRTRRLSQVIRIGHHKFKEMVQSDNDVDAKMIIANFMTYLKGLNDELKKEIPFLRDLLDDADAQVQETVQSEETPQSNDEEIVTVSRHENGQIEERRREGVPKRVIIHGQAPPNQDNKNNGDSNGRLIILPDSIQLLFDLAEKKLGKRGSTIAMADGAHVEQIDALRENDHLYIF

How the values were obtained:
Experiment in all cases: two-hybrid; mating-based split-ubiquitin system (mbSUS) in diploid yeast (THY.AP4 x THY.AP5); growth on CSM-LTUMAH without and with 50 μM Met, 72 h, 28°C; SNAP33 and SEC11 anchored via a GPI signal peptide
[1] = target: KAT1 K^+ channel, split-ubiquitin (mbSUS) fusion (Arabidopsis thaliana) (UniProt Q39128)
[2] = target: KAT1^E63A mutant, mbSUS fusion (Arabidopsis thaliana) (UniProt Q39128)
[3] = target: KC1 K^+ channel, full-length, split-ubiquitin (mbSUS) fusion (Arabidopsis thaliana) (UniProt P92960)

B1: SNAP33, GPI-anchored split-ubiquitin (mbSUS) fusion (protein, UniProt Q9S7P9 1-300)
chain: MFGLRKSPANLPKHNSVDLKSSKPNPFDSDDESDNKHTLNPSKRTTSEPSLADMTNPFGGERVQKGDSSSSKQSLFSNSKYQYKNNFRDSGGIENQSVQELEGYAVYKAEETTKSVQGCLKVAEDIRSDATRTLVMLHDQGEQITRTHHKAVEIDHDLSRGEKLLGSLGGMFSKTWKPKKTRPINGPVVTRDDSPTRRVNHLEKREKLGLNSAPRGQSRTREPLPESADAYQRVEMEKAKQDDGLSDLSDILGELKNMAVDMGSEIEKQNKGLDHLHDDVDELNFRVQQSNQRGRRLLGK
- binding [1]: binds
- binding [2]: binds weakly
- binding [3]: binds
